# Assay results: paper PMC6521028
# Results are given in words; binding and its absence hold for the method and conditions named. In cells and extracts the contact can be indirect. Some entries that bind do so weakly or less than the wild type. Sequences can lack the tags named with a protein.
# T1: Flag-tagged porcine retinoic acid-inducible gene I (pRIG-I) (porcine) (UniProt Q9GLV6)
# T1 sequence: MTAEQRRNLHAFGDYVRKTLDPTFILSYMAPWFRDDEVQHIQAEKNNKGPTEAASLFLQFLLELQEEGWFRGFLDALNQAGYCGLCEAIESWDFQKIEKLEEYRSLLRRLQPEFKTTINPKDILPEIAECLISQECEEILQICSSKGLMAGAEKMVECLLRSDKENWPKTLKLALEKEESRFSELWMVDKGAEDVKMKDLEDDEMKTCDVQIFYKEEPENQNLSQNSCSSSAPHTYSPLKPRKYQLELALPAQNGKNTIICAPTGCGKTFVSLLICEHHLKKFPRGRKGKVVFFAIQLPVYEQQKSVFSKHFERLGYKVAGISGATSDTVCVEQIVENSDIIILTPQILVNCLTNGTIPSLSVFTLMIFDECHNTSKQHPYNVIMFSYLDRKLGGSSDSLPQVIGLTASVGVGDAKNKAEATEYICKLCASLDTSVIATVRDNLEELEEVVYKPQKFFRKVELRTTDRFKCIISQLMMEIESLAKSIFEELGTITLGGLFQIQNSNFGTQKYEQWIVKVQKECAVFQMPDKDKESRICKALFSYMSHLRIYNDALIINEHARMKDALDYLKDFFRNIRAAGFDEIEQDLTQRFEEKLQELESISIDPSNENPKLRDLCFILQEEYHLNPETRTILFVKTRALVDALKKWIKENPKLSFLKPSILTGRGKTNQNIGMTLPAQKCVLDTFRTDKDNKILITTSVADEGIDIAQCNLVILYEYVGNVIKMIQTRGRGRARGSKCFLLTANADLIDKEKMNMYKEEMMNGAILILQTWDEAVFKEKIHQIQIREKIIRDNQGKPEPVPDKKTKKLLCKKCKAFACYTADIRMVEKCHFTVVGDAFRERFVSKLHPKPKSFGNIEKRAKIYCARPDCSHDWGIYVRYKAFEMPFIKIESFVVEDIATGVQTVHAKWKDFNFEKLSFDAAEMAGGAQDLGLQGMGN
# T2: HA-tagged porcine Riplet (pRiplet) (porcine) (UniProt F1RKW3)
# T2 sequence: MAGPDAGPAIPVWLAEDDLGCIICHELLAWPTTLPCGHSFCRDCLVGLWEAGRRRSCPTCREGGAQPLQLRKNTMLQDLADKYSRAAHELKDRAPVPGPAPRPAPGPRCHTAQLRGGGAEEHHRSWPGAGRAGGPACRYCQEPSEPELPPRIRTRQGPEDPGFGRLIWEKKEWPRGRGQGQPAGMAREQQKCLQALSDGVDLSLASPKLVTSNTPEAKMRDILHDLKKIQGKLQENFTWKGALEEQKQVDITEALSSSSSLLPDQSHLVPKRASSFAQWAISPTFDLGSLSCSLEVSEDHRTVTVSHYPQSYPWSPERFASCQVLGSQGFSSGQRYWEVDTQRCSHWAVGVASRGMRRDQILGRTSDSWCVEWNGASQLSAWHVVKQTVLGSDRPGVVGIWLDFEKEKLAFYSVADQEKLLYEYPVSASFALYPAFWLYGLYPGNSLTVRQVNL
# B1: HA-tagged porcine Riplet (pRiplet) (protein, UniProt F1RKW3 1-454)
# chain: T2 sequence
# B2: Flag-tagged porcine retinoic acid-inducible gene I (pRIG-I) (protein, UniProt Q9GLV6 1-940)
# chain: T1 sequence
# What was measured:
# [1] = biological target: T1, Flag-tagged porcine retinoic acid-inducible gene I (pRIG-I) (porcine); assay: co-IP; HEK293T cells cotransfected for 28 h; lysis buffer 50 mM Tris-HCl pH 7.4, 150 mM NaCl, 1% NP-40, 10% glycerin, 0.1% SDS, 2 mM Na2EDTA; precipitated at 4°C with anti-Flag affinity gel; western blot
# [2] = biological target: T2, HA-tagged porcine Riplet (pRiplet) (porcine); assay: co-IP; HEK293T cells cotransfected for 28 h; same lysis buffer; precipitated at 4°C with anti-HA affinity gel; western blot
Binder,binding [1],binding [2]
B1,binds,
B2,,binds
